Test results as given in paper PMC5566832.
No constants are given. Whether binding was seen depends on the method and setting. In cells and extracts the contact can be indirect. Some entries that bind do so weakly or less than the wild type. Tags and fused reporters may be left off the sequences shown.

Amino acid sequences for entries named in this document (tags omitted). Residues count along the entry.
UniProt Q4U9M9, residues 20-873: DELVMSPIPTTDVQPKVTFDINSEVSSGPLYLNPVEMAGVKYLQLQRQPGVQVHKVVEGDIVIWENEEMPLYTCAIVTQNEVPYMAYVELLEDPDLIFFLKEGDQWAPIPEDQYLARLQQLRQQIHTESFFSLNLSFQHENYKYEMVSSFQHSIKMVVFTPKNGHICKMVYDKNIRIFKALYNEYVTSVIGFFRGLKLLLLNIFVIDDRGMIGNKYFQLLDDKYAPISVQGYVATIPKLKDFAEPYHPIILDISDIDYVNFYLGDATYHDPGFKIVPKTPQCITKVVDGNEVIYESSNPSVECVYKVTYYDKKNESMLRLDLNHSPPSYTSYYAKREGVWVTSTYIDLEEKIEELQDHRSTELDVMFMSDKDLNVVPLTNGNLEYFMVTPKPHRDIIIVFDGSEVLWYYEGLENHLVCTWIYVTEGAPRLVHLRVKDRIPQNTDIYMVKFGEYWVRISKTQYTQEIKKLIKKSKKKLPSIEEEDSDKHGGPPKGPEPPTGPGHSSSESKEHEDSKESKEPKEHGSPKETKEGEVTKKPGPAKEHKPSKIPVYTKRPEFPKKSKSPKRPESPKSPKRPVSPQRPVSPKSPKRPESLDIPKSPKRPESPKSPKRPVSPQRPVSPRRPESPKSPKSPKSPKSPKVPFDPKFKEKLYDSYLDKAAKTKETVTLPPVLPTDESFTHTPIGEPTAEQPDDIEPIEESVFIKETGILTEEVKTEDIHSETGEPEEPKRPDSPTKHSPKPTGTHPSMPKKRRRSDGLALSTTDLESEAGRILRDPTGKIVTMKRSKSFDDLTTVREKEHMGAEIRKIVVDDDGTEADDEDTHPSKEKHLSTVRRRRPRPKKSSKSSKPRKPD

T1: GFP-CLASP1_(1256-1538) (the kinetochore-binding domain of CLASP1) (human) (UniProt Q7Z460)
T1 sequence: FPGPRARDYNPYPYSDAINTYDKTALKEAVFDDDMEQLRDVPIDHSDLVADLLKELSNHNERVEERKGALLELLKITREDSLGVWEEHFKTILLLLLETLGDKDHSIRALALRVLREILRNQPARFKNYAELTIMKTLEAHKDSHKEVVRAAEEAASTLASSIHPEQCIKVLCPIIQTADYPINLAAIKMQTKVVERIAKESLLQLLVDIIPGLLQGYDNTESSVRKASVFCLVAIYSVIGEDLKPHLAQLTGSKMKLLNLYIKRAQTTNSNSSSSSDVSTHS


Biological target: T1, GFP-CLASP1_(1256-1538) (the kinetochore-binding domain of CLASP1) (human)
Assay: co-IP; GFP-TRAP magnetic beads on lysate of TaC12 cells transduced with GFP-CLASP1(1256-1538); lysis buffer with 0.5% NP-40; Western blot; control: nontransduced TaC12

Molecule	binding
T. annulata schizont membrane protein p104 (TA08425), endogenous (from UniProt Q4U9M9 20-873)	binds
bovine EB1 (end-binding protein 1), host cell (protein, UniProt Q3ZBD9 1-268) MAVNVYSTSVTSDNLSRHDMLAWINESLQLNLTKIEQLCSGAAYCQFMDMLFPGSIALKKVKFQAKLEHEYIQNFKILQAGFKRMGVDKIIPVDKLVKGKFQDNFEFVQWFKKFFDANYDGKEYDPVAARQGQETAMAPSLVAPALNKPKKPLSSSSAAPQRPITTHRTTATPKAGPGVVRKNPGVGNGDDEAAELMQQVNVLKLTVEDLEKERDFYFGKLRNIELICQENEGENNPVLQRIVDILYATDEGFVIPDEGGPQEEQEEY	no binding
